Source: paper PMC6828733
Results are given in words; binding and its absence hold for the method and conditions named. In cells and extracts the contact can be indirect. Binding calls can cover weak binding; strength is not graded here. For some of these results: Tags and fused reporters may be left off the sequences shown.

Amino acid sequences for entries named in this document (tags omitted). A change or cut given only in a name is not applied to a line headed by its entry.
UniProt Q12772: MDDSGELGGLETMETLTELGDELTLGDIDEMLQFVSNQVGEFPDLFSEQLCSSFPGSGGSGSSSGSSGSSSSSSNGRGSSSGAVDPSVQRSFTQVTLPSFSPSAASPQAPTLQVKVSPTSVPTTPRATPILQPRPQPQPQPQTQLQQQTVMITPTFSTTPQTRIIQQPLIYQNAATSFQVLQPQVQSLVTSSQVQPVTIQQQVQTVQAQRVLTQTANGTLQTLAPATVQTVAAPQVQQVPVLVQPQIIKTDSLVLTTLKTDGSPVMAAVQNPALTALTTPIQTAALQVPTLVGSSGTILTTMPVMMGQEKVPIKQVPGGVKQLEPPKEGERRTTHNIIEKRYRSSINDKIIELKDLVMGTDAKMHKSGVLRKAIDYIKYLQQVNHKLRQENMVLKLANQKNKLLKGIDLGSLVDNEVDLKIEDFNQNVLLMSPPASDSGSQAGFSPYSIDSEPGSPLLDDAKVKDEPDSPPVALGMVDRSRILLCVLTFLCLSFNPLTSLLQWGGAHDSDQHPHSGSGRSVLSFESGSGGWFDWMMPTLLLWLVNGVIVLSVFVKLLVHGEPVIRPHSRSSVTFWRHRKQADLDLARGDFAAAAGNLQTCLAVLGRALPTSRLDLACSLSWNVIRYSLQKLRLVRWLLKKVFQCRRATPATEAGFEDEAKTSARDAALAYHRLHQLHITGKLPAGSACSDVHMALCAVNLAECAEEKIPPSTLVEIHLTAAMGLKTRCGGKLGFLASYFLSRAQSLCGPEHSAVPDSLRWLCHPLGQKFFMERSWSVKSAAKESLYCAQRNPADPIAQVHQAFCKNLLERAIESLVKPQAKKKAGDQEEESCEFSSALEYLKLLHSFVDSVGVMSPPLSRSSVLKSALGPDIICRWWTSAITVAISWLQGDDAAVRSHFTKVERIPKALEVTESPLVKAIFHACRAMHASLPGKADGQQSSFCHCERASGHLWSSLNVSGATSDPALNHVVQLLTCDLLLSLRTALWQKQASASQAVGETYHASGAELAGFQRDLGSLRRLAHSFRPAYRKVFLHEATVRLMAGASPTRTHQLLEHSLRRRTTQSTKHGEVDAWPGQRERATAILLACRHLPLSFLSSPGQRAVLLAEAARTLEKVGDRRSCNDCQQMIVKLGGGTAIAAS

B1: V5-tagged ASPP2 (protein, UniProt Q13625 1-1128)
chain: MMPMFLTVYLSNNEQHFTEVPVTPETICRDVVDLCKEPGESDCHLAEVWCGSERPVADNERMFDVLQRFGSQRNEVRFFLRHERPPGRDIVSGPRSQDPSLKRNGVKVPGEYRRKENGVNSPRMDLTLAELQEMASRQQQQIEAQQQLLATKEQRLKFLKQQDQRQQQQVAEQEKLKRLKEIAENQEAKLKKVRALKGHVEQKRLSNGKLVEEIEQMNNLFQQKQRELVLAVSKVEELTRQLEMLKNGRIDSHHDNQSAVAELDRLYKELQLRNKLNQEQNAKLQQQRECLNKRNSEVAVMDKRVNELRDRLWKKKAALQQKENLPVSSDGNLPQQAASAPSRVAAVGPYIQSSTMPRMPSRPELLVKPALPDGSLVIQASEGPMKIQTLPNMRSGAASQTKGSKIHPVGPDWSPSNADLFPSQGSASVPQSTGNALDQVDDGEVPLREKEKKVRPFSMFDAVDQSNAPPSFGTLRKNQSSEDILRDAQVANKNVAKVPPPVPTKPKQINLPYFGQTNQPPSDIKPDGSSQQLSTVVPSMGTKPKPAGQQPRVLLSPSIPSVGQDQTLSPGSKQESPPAAAVRPFTPQPSKDTLLPPFRKPQTVAASSIYSMYTQQQAPGKNFQQAVQSALTKTHTRGPHFSSVYGKPVIAAAQNQQQHPENIYSNSQGKPGSPEPETEPVSSVQENHENERIPRPLSPTKLLPFLSNPYRNQSDADLEALRKKLSNAPRPLKKRSSITEPEGPNGPNIQKLLYQRTTIAAMETISVPSYPSKSASVTASSESPVEIQNPYLHVEPEKEVVSLVPESLSPEDVGNASTENSDMPAPSPGLDYEPEGVPDNSPNLQNNPEEPNPEAPHVLDVYLEEYPPYPPPPYPSGEPEGPGEDSVSMRPPEITGQVSLPPGKRTNLRKTGSERIAHGMRVKFNPLALLLDSSLEGEFDLVQRIIYEVDDPSLPNDEGITALHNAVCAGHTEIVKFLVQFGVNVNAADSDGWTPLHCAASCNNVQVCKFLVESGAAVFAMTYSDMQTAADKCEEMEEGYTQCSQFLYGVQEKMGIMNKGVIYALWDYEPQNDDELPMKEGDCMTIIHREDEDEIEWWWARLNDKEGYVPRNLLGLYPRIKPRQRSLA

Experiments:
[1] = target: T1, ASPP2 (endogenous, HCC-LM3 cells) (human (endogenous in HCC-LM3)) (UniProt Q13625); assay: co-IP; endogenous proteins, nuclear proteins of HCC-LM3 isolated with the Nuclear Complex Co-IP Kit (Active Motif), diluted in lysis buffer; IP with anti-ASPP2 overnight, protein A/G agarose, Western blot
T1 sequence: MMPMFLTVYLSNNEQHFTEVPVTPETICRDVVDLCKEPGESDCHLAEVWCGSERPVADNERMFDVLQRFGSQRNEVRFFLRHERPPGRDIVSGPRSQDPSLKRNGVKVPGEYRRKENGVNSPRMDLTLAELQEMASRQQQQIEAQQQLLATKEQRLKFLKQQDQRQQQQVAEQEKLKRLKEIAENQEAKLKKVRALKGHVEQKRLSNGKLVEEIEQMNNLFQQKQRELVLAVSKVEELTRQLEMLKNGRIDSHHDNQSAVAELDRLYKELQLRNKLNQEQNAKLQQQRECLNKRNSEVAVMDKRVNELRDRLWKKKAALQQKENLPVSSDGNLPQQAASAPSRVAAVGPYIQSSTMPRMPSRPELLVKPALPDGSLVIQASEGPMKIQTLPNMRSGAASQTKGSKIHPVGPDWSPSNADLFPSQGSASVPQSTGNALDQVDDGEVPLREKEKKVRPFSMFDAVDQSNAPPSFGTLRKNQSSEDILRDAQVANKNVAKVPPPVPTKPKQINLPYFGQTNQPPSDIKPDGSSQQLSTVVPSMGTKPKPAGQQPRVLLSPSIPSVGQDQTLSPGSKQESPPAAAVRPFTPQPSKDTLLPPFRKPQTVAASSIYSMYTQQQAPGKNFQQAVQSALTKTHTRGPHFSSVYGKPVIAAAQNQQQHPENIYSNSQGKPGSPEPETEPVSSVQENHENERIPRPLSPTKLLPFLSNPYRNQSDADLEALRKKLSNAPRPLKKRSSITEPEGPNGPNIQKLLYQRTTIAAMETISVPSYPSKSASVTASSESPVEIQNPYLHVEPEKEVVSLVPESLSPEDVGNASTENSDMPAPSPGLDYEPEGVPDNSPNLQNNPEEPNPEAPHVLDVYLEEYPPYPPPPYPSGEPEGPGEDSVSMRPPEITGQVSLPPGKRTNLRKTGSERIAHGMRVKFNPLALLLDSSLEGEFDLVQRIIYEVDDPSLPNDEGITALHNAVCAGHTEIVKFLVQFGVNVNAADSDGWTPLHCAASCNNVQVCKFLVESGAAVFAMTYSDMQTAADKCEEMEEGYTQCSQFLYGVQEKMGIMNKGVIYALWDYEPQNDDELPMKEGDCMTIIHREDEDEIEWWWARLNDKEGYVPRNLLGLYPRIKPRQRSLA

[2] = target: T1, ASPP2 (endogenous, HCC-LM3 cells) (human (endogenous in HCC-LM3)); assay: co-IP; endogenous proteins, HCC-LM3 total cell lysate (50 mM Tris HCl, 150 mM NaCl, 0.1% SDS, 1% NP-40, 0.5% sodium deoxycholate); IP with anti-ASPP2 overnight, protein A/G agarose, Western blot; also cells with ASPP2 depleted (interaction greatly reduced)
[3] = target: HA-tagged SREBP-2; assay: co-IP; V5-tagged ASPP2 and HA-SREBP-2 co-transfected into HEK293T, total cell lysate; IP with anti-V5 or with anti-HA antibody, protein A/G agarose, Western blot
[4] = target: HA-tagged SREBP-2; assay: co-IP; V5-tagged ASPP2 and HA-SREBP-2 co-transfected into HEK293T, nuclear proteins isolated with the Nuclear Complex Co-IP Kit (Active Motif); IP with anti-V5 or with anti-HA antibody, protein A/G agarose, Western blot

Molecule | binding [1] | binding [2] | binding [3] | binding [4]
SREBP-2 (sterol regulated element binding protein-2; endogenous, HCC-LM3 cells) (from UniProt Q12772) | binds | binds |  | 
B1 |  |  | binds | binds
